From the supplement of paper PMC3334620
Over roughly 33,000 sequences, “E-score (-0.5 to 0.5)” has its median near -0.016; the highest 2% begin near 0.3. The list shows a part of the results.

Each sequence was assayed against T1, Yer184c (UniProt P39961) (assay: PBM E-score (8-mer binding enrichment) (E-score (-0.5 to 0.5)); higher = stronger / more preferred TF binding). Settings: protein concentration: 100 nM; construct: GST-full length.
T1 sequence: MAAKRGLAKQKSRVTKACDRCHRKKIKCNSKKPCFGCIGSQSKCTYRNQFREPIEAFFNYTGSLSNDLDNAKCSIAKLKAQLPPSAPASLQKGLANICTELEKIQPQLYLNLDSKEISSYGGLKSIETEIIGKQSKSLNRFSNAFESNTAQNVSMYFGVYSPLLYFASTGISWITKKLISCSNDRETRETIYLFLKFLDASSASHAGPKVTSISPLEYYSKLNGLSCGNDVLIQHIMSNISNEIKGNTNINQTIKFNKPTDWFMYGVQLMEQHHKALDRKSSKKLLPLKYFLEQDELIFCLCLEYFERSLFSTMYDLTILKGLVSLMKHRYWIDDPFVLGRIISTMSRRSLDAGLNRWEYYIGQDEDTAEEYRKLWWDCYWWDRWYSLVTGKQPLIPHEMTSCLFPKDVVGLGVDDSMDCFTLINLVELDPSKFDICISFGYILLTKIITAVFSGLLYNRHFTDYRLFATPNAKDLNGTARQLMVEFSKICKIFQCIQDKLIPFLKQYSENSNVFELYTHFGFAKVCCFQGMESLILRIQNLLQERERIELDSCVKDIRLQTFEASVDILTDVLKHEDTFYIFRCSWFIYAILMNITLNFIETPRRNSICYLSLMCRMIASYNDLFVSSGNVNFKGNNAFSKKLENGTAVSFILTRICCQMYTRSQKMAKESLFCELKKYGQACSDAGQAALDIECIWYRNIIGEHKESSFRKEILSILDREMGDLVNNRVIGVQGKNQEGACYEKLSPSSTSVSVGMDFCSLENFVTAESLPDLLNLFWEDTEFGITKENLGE
In short: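 The E-score, a modified Wilcoxon-Mann-Whitney statistic, was computed by the Universal PBM Analysis Suite for every ungapped eight-base word pooled with its reverse complement. Scans behind it were normalised with masliner after bound GST-tagged yeast transcription factors were detected with fluorescent anti-GST. The proteins, at about 100-200 nM, had been applied to universal all-10-mer Agilent arrays made double-stranded by primer extension.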

Sequence | PBM E-score
AGATCCTA | -0.0936
ACCCACGC | -0.0602
CACCTTGA | -0.151
TTCGAGAA | -0.0185
CCACGTGG | -0.395
CAGCCAAA | 0.116
CGCTTTCC | -0.0265
AAGTGGTG | -0.141
CCGAGTCG | 0.00789
TAACGGCA | 0.129
AACCTGCG | -0.0713
ACTCTTAA | -0.0784
ACTCATGC | -0.227
ACACTCAC | 0.137
CGTGCGTC | 0.0693
CATTCACC | 0.127
GGCAGTCA | 0.0622
CAAGGCTG | -0.28
GGTAACTA | 0.186
CGGCCGGC | 0.42
AACGTACA | -0.0551
CCTAAAAG | -0.278
CAGGAAAG | -0.104
ACGCGTGA | 0.164
ACTGTGGC | -0.254

Sequence | PBM E-score
AGCTGTCA | -0.0639
AACGGCTC | 0.215
CGCCTTAG | -0.117
CTCCACTC | -0.262
AACGCCCA | -0.119
CGTTCGGA | 0.342
CACAGGGA | -0.2
CAGAAACC | 0.0453
AGTGTATA | -0.254
CAATCTAA | 0.0306
GAGTTCGC | -0.0587
ACTCCAGG | -0.197
GCTAGTAA | 0.145
AGCGAGCT | 0.129
CGCGTGAG | 0.179
AGGTTCAC | 0.0362
AAACTACT | 0.0661
GACCGGTA | -0.0439
CCTAGCCC | -0.227
AAAGATGT | -0.0217
GAGGAGCC | -0.123
CGTTGATC | 0.0316
CACAGGCA | -0.324
AACGGAGA | 0.107
ATATCGCG | 0.185

Sequence | PBM E-score
AGGGACAC | 0.106
GGGGCTTA | -0.239
CAGTCTGC | -0.128
AGCGACGC | -0.0389
AAACACCG | 0.164
ACGATAGC | -0.0143
ACTTTAGA | 0.0855
ACTTCACG | -0.0539
ACGCATTC | -0.00313
CACAGATA | -0.0192
AATTCCGC | 0.208
AAAAGCAT | 0.15
ATGACCAC | -0.0626
GTGCGGAA | 0.104
GATTCAAC | 0.12
GGACCATA | 0.0907
AGCTCTAT | -0.122
AGGTAAAC | 0.222
CGTGCAAG | -0.0233
GAATCCAC | -0.00579
CATATCCG | 0.277
CAACGTGC | -0.133
ATATAGCG | -0.113
AGCACCAT | -0.291
CTCCGTCC | -0.113

Laid out differently: entries from further up.
Sequence	PBM E-score
CCACGTGG	-0.395
AACCTGCG	-0.0713
AGCTGTCA	-0.0639
CTCCACTC	-0.262
AGGGACAC	0.106
ACTTCACG	-0.0539

Additional results follow:

Sequence | PBM E-score
GACAGCGA | -0.0681
GGATCACC | -0.142
CTTAATTC | 0.156
ATCACCCA | -0.147
GGTTATTA | 0.132
GTACGACA | -0.0496
GGAATCCC | -0.0777
ACCTATTG | -0.16
GCGGCTCC | -0.0125
AGCACCCG | 0.0236
CCGTGGCA | 0.0867
CGCTTAGC | -0.0729
ACGAATAT | 0.111
AGCTCCAG | -0.151
CATTTTAA | 0.115
CCGCGATA | 0.0621
GCCGGTTA | 0.236
GCACGAGA | 0.0219
CACGTGAC | -0.252
CAATTAGA | 0.0277
CTCTTCAC | -0.192
CCATCGGC | 0.0711
AATAATCA | 0.124
GCTTTTGA | -0.0663
CATCATGG | -0.133

Quoted from the listing:
CGCTTAGC – PBM E-score: -0.0729
GTACGACA – PBM E-score: -0.0496
CCGCGATA – PBM E-score: 0.0621

(next part)

Sequence | PBM E-score
AAGTTATG | 0.0764
ATCTACGA | -0.129
ACGTGAGT | -0.108
GAAGTATC | 0.0935
ACTGGGAA | -0.0474
CAACCAGG | 0.0397
TACGACCA | -0.14
AGAGCACA | -0.134
ACCTATAT | 0.246
CCGGTAGA | 0.264
AATCGCTC | -0.136
GATCGTCA | -0.0203
GGTTTATA | 0.073
AAGAGCAG | -0.233
ACTCGGAT | 0.268
AAGCTATG | -0.0842
TCGCTCCA | -0.138
GCACAACA | -0.135
ACCACTGC | -0.268
GGTCGCTA | -0.191
AGGACGCA | -0.171
CCCCGCGG | 0.213
ACTTGGTG | -0.185
ACAGCGTG | -0.0222
CCGGTGTC | 0.165

Already shown: entries from further up.
Sequence | PBM E-score
TCGCTCCA | -0.138
GCACAACA | -0.135

The list continues:

Sequence | PBM E-score
AGAGAACT | -0.0146
CAAGTCGA | -0.0271
AGCCCGAA | 0.1
CGCACGAA | 0.134
GACTTCAA | -0.212
CCAAAGAC | 0.0568
ATAACCAG | 0.136
ATCGCCAG | -0.127
AAGCGTAG | -0.144
AATGAGAT | 0.127
TCCTCCGA | 0.0166
ATATCAGA | 0.239
GTAGATAA | 0.17
CGTGTTTC | 0.0466
TCGCCGAA | 0.316
ACACAAGT | -0.0749
TAAGTCCA | -0.00497
CCAGATGC | -0.103
ATTCTCTA | -0.0085
GACGCCCC | -0.205
CGCAAGAC | -0.012
GCGGGATA | 0.0399
AGGAGACG | -0.26
ATACATAA | 0.164
GCCATATA | 0.037

Sequence | PBM E-score
CCACACAG | -0.073
CTTAAGTA | -0.0115
CCAATTCA | -0.067
GGTAAATA | 0.175
ACGGAGGG | -0.0949
CCTGTACA | 0.13
AGTTACCA | 0.0704
CATGTGCA | -0.208
AGCATGGC | -0.15
GCTAGACC | -0.229
CATAGAAA | 0.247
GTTACGTA | -0.143
ATGCAGGA | -0.302
AGCGATCC | -0.0185
GCTCTGGA | 0.0226
AGCTCCCT | -0.317
CAGGCATG | -0.0502
AACGATGT | 0.13
CAGCGACG | -0.112
TCAAGGCA | -0.203
GCAATGGC | -0.185
CCTCGGAG | 0.277
AGCCAGAA | -0.0683
AGACAGTC | -0.102
AACTGAAG | 0.061

Sequence | PBM E-score
CAATATTC | 0.0849
ATGCGGGG | -0.188
CCAGGAAC | -0.242
CTCATTTA | 0.134
AGGTCCAA | -0.0891
CAGGATAA | -0.0581
AACGGATT | 0.343
ACCGATAG | -0.0489
CCGGACCG | 0.353
TACAAAGA | 0.264
AGCAATCC | -0.0121
GCTTGAAC | 0.234
CCGGCGGA | 0.369
CATCAGAG | -0.0413
CTCGGGAC | 0.185
ACTGGGCG | -0.219
ACGGTGCA | -0.0594
TACTGTGA | -0.0361
ACGTTGTA | -0.0156
GGGACACC | -0.231
CAAGTGCC | -0.126
GGGCTGCA | -0.213
ATCGACCC | -0.0134
GGCTGTAC | -0.0996
AAGGATGG | -0.075

Sequence | PBM E-score
GGTAATGA | 0.0832
CAAATTAG | 0.12
AAATGTTA | 0.0199
CGTCCGCC | 0.0838
GATGCGGA | 0.0925
CCTGGAAC | -0.105
CCAGATCA | 0.135
GGGTGCAC | -0.14
GTCTCTCA | 0.0704
ATAATACC | 0.15
AGGTCAAC | -0.143
CCTGGCCA | -0.256
ATCGTCGA | -0.00197
GCTAGAAC | 0.0788
CTCAGCCA | -0.186
TAATAAAA | 0.3
CACACCCG | 0.0163
GCCAAAAC | -0.196
CTGATTTC | 0.114
